This is an account of results in doi:10.1101/2023.03.24.534125 (bioRxiv, 2023).

No constants are given. Whether binding was seen depends on the method and setting.

The assay addresses Cbp1ΔHTH3 (Cbp1 with the third HTH domain deleted) (S. solfataricus P2). The assay is described as follows: native gel or EMSA. In general terms: In EMSA bound probe runs differently from free probe, usually more slowly.

B1: Cren7 (S. solfataricus, SSO6901) (natural protein, UniProt Q97ZE3 1-60, looked up)
chain: MSSGKKPVKVKTPAGKEAELVPEKVWALAPKGRKGVKIGLFKDPETGKYFRHKLPDDYPI
As to B1, the binding result was “no binding (tested: ΔHTH3 at 25 nM)”.
